Data on 39 molecules can be found in the supplement of paper PMC8256030.

Molecules are shown by their SMILES. Several values for one entry are separate records, joined by “and”; a condition that tells them apart may be missing. Equal entries are not always repeated. Structures can show the parent of a compound that is named as a salt. Some of the results follow. Repeats in this data set agree poorly, so a single value says little.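 HEK293T cells were given each compound shortly before transfection with a reporter in which red mCherry is followed by the SARS-CoV-2 frameshift element and then GFP in the −1 frame, so GFP appears only after frameshifting.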

This assay has as its system HEK293T. In words: percent viability (nuclei count) relative to control; higher = more viable cells. The settings on record: 10 µM; 24 h.
With `CC(=O)N[C@H]1[C@H]([C@H](O)[C@H](O)CO)OC(C(=O)O)=C[C@@H]1NC(=N)N` [zanamivir], the percent viability is 237%.

Take `C[C@]12CC[C@@H]3c4ccc(O)cc4CC[C@H]3[C@@H]1CC[C@@H]2OP(=O)(O)O` [polyestradiol phosphate]: the percent viability came to 226%.

With `CC(=O)NCC(=O)O` [aceturate], the percent viability is 157%.

Consider `C1CNCCN1`, for which the percent viability is 186%.

For the molecule `CC(C)(CO)[C@@H](O)C(=O)NCCC(=O)NCCSSCCNC(=O)CCNC(=O)[C@H](O)C(C)(C)CO`, the percent viability stood at 236%.

As to `COC(=O)C1=C(C)NC(C)=C(C(=O)OCCCN2CCC(c3ccccc3)(c3ccccc3)CC2)C1c1cccc([N+](=O)[O-])c1` (centres undefined) [dexniguldipine  iguldipine], the percent viability amounted to 278%.

As to `CN1c2cc(O)c(N=NC(N)=O)cc2CC1S(=O)(=O)O` (centres undefined) [carbazochrome sodium sulfonate], the percent viability was 107%.

As to `C=CCN1CCCC1CNC(=O)c1cc(S(N)(=O)=O)cc(OC)c1OC` (centres undefined) [veralipride], the percent viability stood at 72.6%.

Regarding `COC(=O)[C@H]1[C@H]2C[C@@H]3c4[nH]c5cc(OC)ccc5c4CCN3C[C@H]2C[C@@H](OC(=O)c2cc(OC)c(OC)c(OC)c2)[C@@H]1OC` [reserpine], the percent viability turned out to be 154%.

`NCCc1ccc(O)c(O)c1` [dopamine]: the percent viability was 198%.

Turning to `CCN(CC)CCOCCOC(=O)C(CC)(CC)c1ccccc1` [oxeladin], the percent viability stood at 193%.

Regarding `COc1ccc(-c2cc(=S)ss2)cc1` [Anethole-trithione], the percent viability came out at 239%.

`O=C(O)CCC(=O)c1ccc(-c2ccccc2)cc1` [fenbufen]: the percent viability was 222% and 125%.

Turning to `CC[C@@]1(O)C(=O)OCc2c1cc1n(c2=O)Cc2cc3cc(O)ccc3nc2-1` [10-Hydroxycamptothecin], the percent viability is 86.9%.

As to `c1ccc2oc(-c3ccncc3)cc2c1` [pyridarone], the percent viability worked out at 203%.

For `CC(C)(C)NCC(O)c1ccc(O)c(CO)c1` (centres undefined) [salbutamol], the percent viability is 400% and 159%.

In the case of `C/N=C(\NC)NCc1ccccc1` [betanidine], the percent viability was determined as 244%.

`CNCCC(Oc1ccccc1OC)c1ccccc1` (centres undefined) [Nisoxetine·HCl]: the percent viability was found to be 362%.

As to `COc1ccc2c(c1)CCC(c1ccccc1)=C2c1ccc(OCCN2CCCC2)cc1` [nafoxidine], the percent viability was 387%.

For `Cc1ccnc2c1NC(=O)c1cccnc1N2C1CC1` [nevirapine], the percent viability was 362%.

For `c1cnc2cc3c(cc2n1)[C@@H]1CNC[C@H]3C1` [varenicline], the percent viability worked out at 191%.

For the molecule `Cc1nc2n(c(=O)c1CCN1CCC(c3noc4cc(F)ccc34)CC1)CCCC2` [risperidone], the percent viability was 328% and 257%.

For `CC(=O)O[C@H]1C[C@@]2(C)[C@@H](C[C@@H](O)[C@H]3[C@@]4(C)CC[C@@H](O)[C@@H](C)[C@@H]4CC[C@@]32C)/C1=C(\CCC=C(C)C)C(=O)O`, the percent viability was found to be 173%.

Consider `C[N+]1(C)[C@@H]2C[C@@H](OC(=O)C(O)(c3cccs3)c3cccs3)C[C@H]1[C@@H]1O[C@@H]12` [Tiotropium Bromide], for which the percent viability worked out at 281%.

For the molecule `NCc1ccccc1Sc1ccccc1CO` [bipenamol], the percent viability stood at 150%.

`Nc1ncnc2nc[nH]c12` [Leuco-4]: the percent viability is 70.7%.

On to `Oc1ccc(CCNCCCCCCNCCc2ccccc2)cc1O` [dopexamine], for which the percent viability came to 168%.

In the case of `C[C@@H](O)[C@H]1C(=O)N2C(C(=O)O)=C(S[C@@H]3CN[C@H](C(=O)N(C)C)C3)[C@H](C)[C@H]12` [meropenem], the percent viability is 84.4%.

`CCCCCCCCCCCCN1CCCCCC1=O` [laurocapram]: the percent viability was determined as 146%.

As to `O=C(O)/C=C/c1ccc(Cn2ccnc2)cc1` [Ozagrel], the percent viability turned out to be 209%.

`CC[C@H]1OC(=O)[C@H](C)[C@@H](O[C@H]2C[C@@](C)(OC)[C@@H](O)[C@H](C)O2)[C@H](C)[C@@H](O[C@@H]2O[C@H](C)C[C@H](N(C)C)[C@H]2O)[C@](C)(O)C[C@@H](C)/C(=N\OCOCCOC)[C@H](C)[C@@H](O)[C@]1(C)O`: the percent viability worked out at 346%.

As to `COC(=O)[C@@H]1CC2=CC(=O)CC[C@]2(C)[C@@]23O[C@@H]2C[C@@]2(C)[C@@H](CC[C@@]24CCC(=O)O4)[C@H]13` [eplerenone], the percent viability amounted to 244%.

Consider `CN1CCc2c(c3ccccc3n2Cc2ccccc2)C1` [mebhydrolin], for which the percent viability was found to be 303%.

As to `COc1ccc2cc1Oc1ccc(cc1)C[C@H]1c3c(cc4c(c3Oc3cc5c(cc3OC)CCN(C)[C@@H]5C2)OCO4)CCN1C`, the percent viability came out at 13.2%.

Turning to `CN(C)CCOC(=O)COc1ccc(Cl)cc1` [meclofenoxate], the percent viability was 103%.

On to `CC(C)CCC(=O)CC1c2ccccc2C(=O)N1c1ccc2ccc(Cl)nc2n1` (centres undefined) [pagoclone], for which the percent viability came out at 144%.

Regarding `O=C(O)COCCN1CCN([C@H](c2ccccc2)c2ccc(Cl)cc2)CC1`, the percent viability was found to be 88.5%.

Consider `CC(=O)O[C@]1(C(C)=O)CC[C@H]2[C@@H]3C=C(Cl)C4=CC(=O)[C@@H]5C[C@@H]5[C@]4(C)[C@H]3CC[C@@]21C` [Cyproterone Acetate], for which the percent viability is 179%.

For the molecule `CCC(CC)CC1(C(=O)Nc2ccccc2SC(=O)C(C)C)CCCCC1` [dalcetrapib], the percent viability stood at 322%.
